The exact form of at least one protein or probe is not confirmed. Where cells or extracts were used, other partners may take part. No signal at the amounts used counts as a negative. Protein sequences can lack the tags named with them.
Target: T1, DM (psNTP9-DM) S208L,P216R (Pisum sativum (pea)) (UniProt P52914)
T1 sequence (looked up, limits assumed): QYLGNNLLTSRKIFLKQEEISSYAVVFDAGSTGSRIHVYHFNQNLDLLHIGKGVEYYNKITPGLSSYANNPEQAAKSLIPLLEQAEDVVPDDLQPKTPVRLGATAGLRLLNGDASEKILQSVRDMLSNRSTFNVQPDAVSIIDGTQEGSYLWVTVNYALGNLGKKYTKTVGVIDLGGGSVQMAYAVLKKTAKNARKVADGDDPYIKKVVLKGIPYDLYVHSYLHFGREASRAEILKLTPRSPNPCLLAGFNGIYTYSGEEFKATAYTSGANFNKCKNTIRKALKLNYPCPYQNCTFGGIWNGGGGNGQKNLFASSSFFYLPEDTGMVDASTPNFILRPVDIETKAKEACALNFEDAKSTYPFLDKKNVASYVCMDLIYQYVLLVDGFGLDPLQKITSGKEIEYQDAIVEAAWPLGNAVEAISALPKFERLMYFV
Assay: EMSA
Details: EMSA: 10 mM Tris pH 7.5, 50 mM KCl, 1 mM DTT, 1 ug/uL poly dI-dC, 20 uL, 200 ng protein, room temperature 20-30 min, 6% native PAGE, 0.5x TBE, protein in a lysate after overexpression

Sequence	binding result (no significant shift)	binding result (no significant binding)
AGTTATTTTAACTAATAAACAGATAAAAAGAAATAAAAAGTACTAAATTGGTAAATTATCGTAGTATCAT (double strand) [WRKY42 test]	no binding	–
ATAATGTTACGCAGTTCCGAGCTTCGCTGACACGTGGGAGGTGGGATATAATATTTGCACGGGTTC (double strand) [PHM6 test]	–	no binding
TTCACTTTTCAACTTATCCCTCTCAATCCCCACCACCACCACTCTCTATTCCCTCATATAGATAGATCAT (double strand) [PER50 test]	no binding	–

From paper PMC12656381
